Assay results as given in article PMC7862700.
The list shows a part of the results. The exact form of the protein is not confirmed.

biological target: T1, ETV4 (UniProt P43268); assay: DAPPL (digital affinity profiling via proximity ligation, sequencing); conditions: 10 mM Tris-HCl pH 7.5, 50 mM NaCl, 1 mM DTT, 4% glycerol, room temperature, 30 min; GST-TFs on glutathione beads, 16-mer random dsDNA library, 0.1% …; high values mean tight binding; double strand, one strand shown; scale: fold enrichment (6-mer frequency, TF over GST control)
T1 sequence: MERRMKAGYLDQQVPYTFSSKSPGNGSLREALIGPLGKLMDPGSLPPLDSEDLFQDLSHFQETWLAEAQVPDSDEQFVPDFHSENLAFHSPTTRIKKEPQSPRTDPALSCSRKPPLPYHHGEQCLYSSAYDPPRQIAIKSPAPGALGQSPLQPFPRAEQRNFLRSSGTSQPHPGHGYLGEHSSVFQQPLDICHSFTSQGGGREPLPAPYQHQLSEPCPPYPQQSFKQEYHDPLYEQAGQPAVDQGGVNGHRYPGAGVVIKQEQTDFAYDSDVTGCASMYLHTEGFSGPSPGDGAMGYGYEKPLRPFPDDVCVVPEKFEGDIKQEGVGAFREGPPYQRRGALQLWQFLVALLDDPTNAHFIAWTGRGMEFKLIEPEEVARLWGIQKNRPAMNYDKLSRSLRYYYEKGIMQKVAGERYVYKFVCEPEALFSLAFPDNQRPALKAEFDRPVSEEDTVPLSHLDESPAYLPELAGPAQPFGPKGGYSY

| Sequence | binding signal |
| --- | --- |
| AATGCA | 1.25 |
| TAGGTT | 1.07 |
| CTTCAT | 1.44 |
| ACTTTC | 1.52 |
| TGTTCA | 1.15 |
| TCTACT | 1.5 |
| AGAAAT | 1.04 |
| CCGTCC | 1.29 |
| TCGACT | 1.45 |
| TGATGG | 1.34 |
| GTTCCA | 1.14 |
| ATTTCT | 1.45 |
| AAGTAA | 1.3 |
| CTAAAG | 1.33 |
| CGCCTT | 1.59 |
| TTACAC | 1.23 |
| GGTTTA | 1.05 |
| AAGCTC | 1.16 |
| AATGAG | 1.04 |
| TGAACC | 1.14 |

Exported bar-delimited: entries from further up
Sequence | binding signal
TGTTCA | 1.15
TCTACT | 1.5
AGAAAT | 1.04

Continuation.

| Sequence | binding signal |
| --- | --- |
| CCCACA | 1.2 |
| ATCATG | 1.17 |
| TGGTTT | 1.69 |
| AAAAGG | 1.06 |
| GGTTTC | 1.61 |
| TACCCT | 1.32 |
| TATGTA | 1.26 |
| CTTTCC | 1.92 |
| ATAGCT | 1.14 |
| AAGTAC | 1.69 |
| TCGTTC | 1.28 |
| AAAATC | 1.11 |
| AACTTC | 2.69 |
| TACTTG | 1.4 |
| AACTAA | 1.37 |
| TCACGC | 1.28 |
| CTACGA | 1.33 |
| CATTCC | 1.33 |
| CTGGAC | 1.17 |
| CCACTT | 2.01 |
